# PubChem BioAssay AID662 (National Center for Advancing Translational Sciences (NCATS), 2007)
# Values joined by “and” are separate entries in the source; they are usually repeats but may differ in a detail not shown here. Equal entries are not always repeated. Some of the results follow. The main result of the screen is listed elsewhere. These columns were measured beside it and carry no call. Most of these compounds were active or inconclusive in the main read-out, so they are no random draw. Words in brackets tell the shape of the fitted curve; partial curves, single points and poor fits give uncertain potencies.
# Assay: Cell signaling CRE-BLA (Fsk stim)
# Conditions: CHO CRE-bla reporter (cAMP response element driving beta-lactamase), forskolin EC10, beta-lactamase ratio; measured here: 460 nm blue channel
# Method in brief: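 Using CellSensor CRE-bla CHO cells in Opti-MEM with 0.5% dialyzed FBS, compounds were titrated with EC10 NKH 477 for 3 h at 37 °C. CCF4 ratio (460/530 nm) gave %Activity; AC50 derived.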
row,Structure (SMILES),AC50
1,C=CCn1c(N2CCCCCC2)nc2c1c(=O)[nH]c(=O)n2C,"25.1 µM [rising, single point]"
2,CN1CCc2c(sc3c2C(=O)NC(c2ccco2)N3)C1 (stereo not drawn),"12.6 µM [rising, partial curve]"
3,CCOc1ncccc1C(=O)NCC1COc2ccccc2O1 (stereo not drawn),"12.6 µM [rising, partial curve]"
4,O=c1c2cccc3c(N4CCOCC4)ccc(c32)c2nc3ccccc3n12,"2 µM [falling, full curve]"
5,CC(=O)Nc1ccc(Cc2ccc3[nH]c(=O)cc(C)c3c2)cc1,"5.01 µM [rising, single point]"
6,COc1ccc(-c2cc(C(F)(F)F)n3nc(C(=O)NCc4ccco4)cc3n2)cc1,"12.6 µM [rising, partial curve]"
7,COc1ccc(C2C(C(=O)N3CCN(c4ccccc4)CC3)c3ccccc3C(=O)N2C)cc1OC (stereo not drawn),"0.00316 µM [falling, full curve, poor fit]"
8,O=C(O)CSc1nc(-c2ccccc2)nc2c1oc1ccccc12,"5.01 µM [rising, partial curve]"
9,CC1CCCC(NC(=O)CN2CCN(Cc3ccc(Cl)cc3)C2=O)C1C (stereo not drawn),"12.6 µM [rising, partial curve, poor fit]"
10,N#CCCn1c(=O)c(-c2cc(F)cc(F)c2)nc2cnc(N3CCOCC3)nc21,"12.6 µM [rising, partial curve]"
11,Cc1nc(SCC(=O)Nc2ccc(F)cc2)c2oc3ccccc3c2n1,"0.316 µM [rising, full curve]"
12,O=c1c(-c2ccc(F)cc2)nc2cnc(N3CCNCC3)nc2n1Cc1cccs1,"1.58 µM [rising, full curve]"
13,COCCn1cc(C(=O)NCc2cccs2)c2c3ccccc3n(C)c2c1=O,"3.16 µM [rising, partial curve]"
14,Cc1ccc(Nc2cc(C)nn2-c2nc(C)cc(C)n2)cc1,"15.8 µM [rising, single point]"
15,CCN(CCCn1c(=S)[nH]c2ncccc2c1=O)c1ccccc1,"0.126 µM [rising, partial curve]"
16,CC1CCCCN1S(=O)(=O)c1ccc2c(c1)CCN2C(=O)C1CCC1 (stereo not drawn),"10 µM [rising, single point]"
17,O=C(Nc1nccs1)C1CCCN(S(=O)(=O)c2cccc3cccnc23)C1 (stereo not drawn),"25.1 µM [falling, single point]"
18,OC(COc1ccc(Cl)cc1)CN1C2=NCCCN2c2ccccc21 (stereo not drawn),"25.1 µM [falling, single point]"
19,CCOc1ccccc1NC(=O)N1CCC(NC(=O)c2cccc(C)c2)CC1,"0.501 µM [falling, partial curve]"
20,CCCOc1nc2c(c(=O)n(C)c(=O)n2C)n1CCC,"12.6 µM [rising, partial curve]"
21,Cc1cccc2nc(Cn3c(=O)n(CCC(=O)NCc4ccco4)c(=O)c4sccc43)cc(=O)n12,"10 µM [rising, single point]"
22,Cc1ccc2oc(NC(=O)N3CCOCC3)cc(=O)c2c1,"0.398 µM [rising, full curve]"

# Reprinted at random: 2 compounds from above, in no set order.
row,Structure (SMILES),AC50
14,Cc1ccc(Nc2cc(C)nn2-c2nc(C)cc(C)n2)cc1,"15.8 µM [rising, single point]"
22,Cc1ccc2oc(NC(=O)N3CCOCC3)cc(=O)c2c1,"0.398 µM [rising, full curve]"

# (list continues)

row,Structure (SMILES),AC50
1,CCOC(=O)c1ccc2c(c1)C1C=CCC1C(C(=O)O)N2 (stereo not drawn),"12.6 µM [falling, single point]"
2,CCNc1nc2c(c(=O)n(Cc3ccccc3)c(=O)n2C)n1Cc1ccccc1,"12.6 µM [rising, single point]"
3,N#CCCn1c(=O)c(-c2cc(F)cc(F)c2)nc2cnc(OCc3ccccc3)nc21,"12.6 µM [rising, partial curve]"
4,COc1ccc(-c2nc3cnc(N(C)C)nc3n(C[C@H]3CCCO3)c2=O)cc1,"2 µM [rising, full curve]"
5,O=C1c2ccccc2CC1Sc1nnc(-c2ccccn2)o1 (stereo not drawn),"6.31 µM [falling, partial curve]"
6,Cc1ccc(C2C=C(c3ccccc3OC(F)F)Nc3ncnn32)cc1 (stereo not drawn),"25.1 µM [rising, single point]"
7,CCOC(=O)c1[nH]c(=O)[nH]c1CSCCO,"0.501 µM [rising, partial curve]"
8,O=C(CSc1nnnn1C1CCCC1)N1CCN(C(=O)c2ccco2)CC1,"2.51 µM [rising, single point]"
9,Cc1ccc(S(=O)(=O)c2c(C)nn(C(C)(C)C)c2OC(=O)c2ccco2)cc1,"12.6 µM [falling, single point]"
10,CC(C)NC[C@@H](O)COc1cccc2[nH]ccc12,"12.6 µM [falling, single point] and 31.6 µM [falling, single point]"
11,CCCC(C(=O)NCc1ccc(OC)cc1)N(Cc1ccco1)C(=O)c1snc(C(N)=O)c1N (stereo not drawn),"5.01 µM [falling, single point]"
12,CCN=c1sc(C(=O)NCCc2ccccc2)cc(=O)n1CC,"1 µM [rising, full curve, poor fit]"
13,CCOC(=O)C1CCN(C(=O)Nc2ccc(NC(=O)C3CCN(C(=O)OCC)CC3)cc2)CC1,"5.01 µM [rising, single point]"
14,COC(=O)/C=C(\C)NC(=O)c1cccs1,"15.8 µM [rising, single point]"
15,COC(=O)c1ccc(Oc2nc(Nc3ccc(F)cc3)nc(N3CCCC3)n2)cc1,"2 µM [rising, full curve]"
16,CC(C)n1nc(C(=O)OCC(=O)N(C)C2CCS(=O)(=O)C2)c2ccccc2c1=O (stereo not drawn),"12.6 µM [falling, partial curve, poor fit]"
17,CC1Cc2ccccc2N1C(=O)C1CCN(S(=O)(=O)c2cccs2)CC1 (stereo not drawn),"1 µM [falling, single point]"
18,COc1ccc(C(=O)n2nc(-c3ccco3)nc2SC)cc1OC,"10 µM [falling, partial curve]"
19,C=CCNC(=O)c1c(N)n(-c2cccc(S(N)(=O)=O)c2)c2nc3ccccc3nc12,"12.6 µM [rising, partial curve]"
20,CCOC(=O)c1c(CN(CC)CC)oc2cc(Br)c(O)cc12,"3.16 µM [rising, full curve]"
21,CCOc1ccccc1COC(=O)c1cccc(-n2cnnn2)c1,"12.6 µM [rising, partial curve]"
